For 2 substances, binding results are on record in publication PMC3135610.

By UniProt entry, the sequences of proteins in these tests, tags left out. Where a name states a change or a piece, a line headed by the entry shows the natural chain unless it says otherwise. Residues count along the entry.
UniProt P11940: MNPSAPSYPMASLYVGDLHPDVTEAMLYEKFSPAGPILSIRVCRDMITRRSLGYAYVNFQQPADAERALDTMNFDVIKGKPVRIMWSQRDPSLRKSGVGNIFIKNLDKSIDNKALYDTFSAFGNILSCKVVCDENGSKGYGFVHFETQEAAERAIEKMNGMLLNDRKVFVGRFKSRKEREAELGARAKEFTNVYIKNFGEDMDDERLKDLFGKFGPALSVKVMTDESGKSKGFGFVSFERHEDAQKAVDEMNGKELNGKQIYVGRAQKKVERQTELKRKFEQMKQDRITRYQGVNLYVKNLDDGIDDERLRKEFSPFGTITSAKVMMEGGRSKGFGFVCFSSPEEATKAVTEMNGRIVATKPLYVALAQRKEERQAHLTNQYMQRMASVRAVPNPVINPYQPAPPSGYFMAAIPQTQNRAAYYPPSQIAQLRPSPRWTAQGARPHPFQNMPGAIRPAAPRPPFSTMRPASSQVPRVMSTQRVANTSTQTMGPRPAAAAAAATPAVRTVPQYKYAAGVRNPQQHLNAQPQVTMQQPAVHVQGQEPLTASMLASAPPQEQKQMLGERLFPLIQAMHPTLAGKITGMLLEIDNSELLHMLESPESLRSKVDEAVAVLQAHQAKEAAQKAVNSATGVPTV
GST-PABP^554–636: residues 554-636 of P11940

One assay addresses GST-PABP^554–636 (UniProt P11940). Description: pull-down; recombinant GST-PABP 554-636 incubated with crude HEK293 cell lysate, glutathione-sepharose beads, eluates immunoblotted; only the target purified. In general terms: In western blotting, separated proteins are transferred to a membrane and probed.
The target of assay [1] is T1, GST-HELZ^1023–1199 (human) (UniProt P42694).
T1 sequence: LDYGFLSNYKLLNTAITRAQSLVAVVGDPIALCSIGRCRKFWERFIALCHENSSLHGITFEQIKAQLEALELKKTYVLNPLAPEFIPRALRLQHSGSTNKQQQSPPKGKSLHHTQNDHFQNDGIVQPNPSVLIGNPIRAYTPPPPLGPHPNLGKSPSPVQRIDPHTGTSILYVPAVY
Description: pull-down; 0.5 µg recombinant GST fusion protein with 2.5 mg total HeLa cell extract (normoxic cells; also hypoxic cells) and glutathione-sepharose beads, 3 hours at 4°C, buffer A (20 mM Hepes/KOH pH 7.4, 100 mM KCl, 0.1% NP-40, 0.5 mM EDTA, 10% glycerol), ten washes, eluates immunoblotted; only the target purified.

These are yes or no findings as the source states them, for the method shown. Binding seen in cells or lysates may run through a third protein. Some entries that bind do so weakly or less than the wild type. For some assays here: Where a sequence is shown, tags or fusion partners need not be part of it.

For “endogenous HELZ (from UniProt P42694-1 1-1942)”, the binding entry in the assay with GST-PABP^554–636 was “binds”. For the substance “poly(A)-binding protein (PABP) (from UniProt P11940 1-636)”, the binding result in assay [1] was “binds”.
